We go through two compounds from PubChem BioAssay AID1053174 (Broad Institute, 2014).

Hit rate of the full screen: of about 1,500 compounds, about 140 (9.3%) were called active. How the calls were made is not given here. The list shows a part of the results, in another mix than the full data.

The experiment in a line: false positives in methylated H4 peptide AlphaScreen detection – biochemical, cherry-picked samples, artefact control for NSD2 inhibitor project, dose response (AID 1053174).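 Further: 0% = median of neutral control wells.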 To be noted: AlphaScreen artifact counterscreen, preloaded methylated H4 peptide; at 10 µM (top of the series). (In general: Bead proximity is the source of the signal in Alpha formats.)
On to `Cc1c(C(=O)O)cccc1-n1c(C)cc(/C=C2\C(=O)NC(=O)N(c3ccc4c(c3)OCO4)C2=O)c1C`, for which the activity change, negative = signal loss was inactive: -7.69%.
Regarding `CC(=O)OC1C2(CC3N4C(=O)C5(CO)SSC4(CC31O)C(=O)N5C)OC(C)C(C)(C)C2=O` (configuration not stated), the activity change, negative = signal loss is inactive: -1.42%.
